Assay results as given in PubChem BioAssay AID434947 (Broad Institute, 2010).
About 15 (0.7%) of roughly 2,200 compounds were called active.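 The calls were made as follows: active = fitted half-maximal concentration for loss of luminescence signal no more than a set limit of log units above the top tested concentration; inconclusive = flat fit with 30 to 70% signal loss, or invalid fit; inactive = half-maximal concentration above that set limit.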 This is one part of the list.

assay: inhibitors of ADP-Glo detection reagents, dose response, artefact control for GSK3beta inhibitor project, biochemical, luminescence, cell-free, homogeneous (AID 434947); conditions: 5 uM ADP;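 also: kinase-free counter screen of ADP-Glo detection reagents for GSK3beta hits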

EC50, inactive:
COC(=O)c1cn(NC(=O)c2cccnc2)c(=O)c2ccccc12 > 30 µM, CCCCCOC(=O)C1=C(C)Nc2ncnn2C1c1cccs1 (stereo not drawn) > 30 µM, COc1ccc2nc(NC(=O)CSc3n[nH]c(N)n3)sc2c1 > 30 µM, O=c1c(O)c(-c2ccc(O)c(O)c2)oc2cc(O)cc(O)c12 > 30 µM, OCCCNc1nccc(-c2cc(Nc3cccc(Cl)c3)ncn2)n1 > 30 µM, CSc1nc(NCc2ccccc2)c2c3c(sc2n1)CN(C)CC3 > 30 µM, CN(Cc1nc2c(s1)CCCC2)C(=O)CCc1nnc(-c2ccc3c(c2)OCO3)o1 > 30 µM, Cn1c(SCc2cccc(Br)c2)nnc1-c1ccncc1 > 30 µM, Nc1nc(NCC2CCCO2)nc(Nc2ccc(F)cc2)c1[N+](=O)[O-] (stereo not drawn) > 30 µM, CNC(=O)c1cc2cccc(OC)c2oc1=O > 30 µM, COc1ccc(-c2csc(N(CC3CCCO3)C(=O)c3ccccc3)n2)cc1 (stereo not drawn) > 30 µM, COC(=O)c1nnn(-c2nonc2N)c1CSc1ccccn1 > 30 µM, O=C1Nc2cc(C(=O)NCCCN3CCCC3)ccc2S/C1=C\c1ccccc1 > 30 µM, Nc1nonc1-n1nnc(C(=O)N/N=C/c2ccc(Cl)cc2Cl)c1CN1CCCCC1 > 30 µM, Cc1nnc2n(-c3ccccc3)c(=O)c3c4c(sc3n12)CC(C)CC4 (stereo not drawn) > 30 µM, Nc1nonc1-n1nnc(C(=O)N/N=C/c2c(F)cccc2Cl)c1-c1ccc2c(c1)OCO2 > 30 µM, CN(Cc1c(C(=O)N/N=C/c2cccc(F)c2)nnn1-c1nonc1N)c1ccccc1 > 30 µM, Cc1ccc(N2CC(C(=O)Nc3c4c(nn3C(C)(C)C)CS(=O)(=O)C4)CC2=O)cc1 (stereo not drawn) > 30 µM, CN1CCN(C(=O)CCS(=O)(=O)c2cc3c(cc2Cl)NC(=O)CO3)CC1 > 30 µM, CCOc1ccc2nc(NC(=O)CSc3nc(-c4ccccc4)c(C#N)c(=O)[nH]3)sc2c1 > 30 µM, O=C(COc1ccccc1Cl)Nc1ccc2c(c1)OCCO2 > 30 µM, COc1ccc(-n2sc3c(c2=S)-c2cc(OC)ccc2NC3(C)C)cc1 > 30 µM, CCn1c(=O)cc(OCC(=O)N(C)c2ccccc2F)c2ccccc21 > 30 µM, COc1cc(/C=N/O)ccc1OCc1ccccc1Cl > 30 µM, COC(=O)c1ccccc1Nc1ccnc(Cl)n1 > 30 µM, O=C1NC(=S)S/C1=C/c1ccc(N2CCOCC2)o1 > 30 µM, C=CCC1(CC=C)CCCN1C(=O)C1CCC(=O)N(CCc2ccc(OC)cc2)C1 (stereo not drawn) > 30 µM, Cc1ccnc(NC(=O)Cc2ccc([N+](=O)[O-])cc2)c1 > 30 µM, COCCNc1nc(N)c([N+](=O)[O-])c(NC2CCCCC2)n1 > 30 µM, COc1ccc(Cl)cc1-c1nc(N)nc(N(C)C)n1 > 30 µM, COc1cccc(-n2sc3c(c2=S)-c2cc(OC)ccc2NC3(C)C)c1 > 30 µM, Cc1ccc(NS(=O)(=O)c2cccc(C(=O)N/N=C/c3c(C)nn(-c4ccccc4)c3N3CCCC3)c2)c(C)c1 > 30 µM, CSc1nnnn1-c1c(C)cccc1C > 30 µM, NS(=O)(=O)c1ccc(N2CCCCCC2)c([N+](=O)[O-])c1 > 30 µM, CCCc1nc2c([nH]1)c(=O)n(C)c(=O)n2C > 30 µM, O=C(COc1ccccc1[N+](=O)[O-])N/N=C/c1ccccn1 > 30 µM, Cc1onc(-c2ccccc2Cl)c1C(=O)NNC(=O)c1ccc(F)cc1 > 30 µM, Cc1noc2c1C(c1ccc(N(C)C)cc1)C1=C(CC(C)(C)CC1=O)N2 (stereo not drawn) > 30 µM, CCCCCCCCCCCCC(=O)CCCCC(=O)O > 30 µM, CCOC(=O)c1cnc2ccc(OC)cc2c1NCCN1CCOCC1 > 30 µM, CCCc1cc(NCc2ccccn2)n2nc(C)c(-c3ccccc3)c2n1 > 30 µM, CC(C)Cn1nc(NC(=O)C(C)(C)C)c2cc3ccccc3nc21 > 30 µM, N#Cc1ccccc1CSc1nnc(-c2ccncc2)o1 > 30 µM, CC1CN(C(=O)CCc2cc(C(C)(C)C)c(O)c(C(C)(C)C)c2)CC(C)O1 (stereo not drawn) > 30 µM, c1ccc(CSc2nnc(-c3ccncc3)o2)cc1 > 30 µM, O=[N+]([O-])c1cc(/C=N\O)ccc1Oc1ccc(F)cc1 > 30 µM, c1ccc(CCCNCC2COc3ccccc3O2)cc1 (stereo not drawn) > 30 µM, Nc1nonc1-n1nnc(C(=O)N/N=C/c2ccoc2)c1CSc1ccccc1 > 30 µM, O=C(NCC(c1ccco1)N1CCN(c2ccc(F)cc2)CC1)c1cccs1 (stereo not drawn) > 30 µM, FC(F)(F)c1ccc(CSc2nccn2-c2ccccc2)cc1 > 30 µM, COc1ccc2occ(C(=O)c3coc4ccc(O)c(CN(C)C)c34)c2c1 > 30 µM, COCCn1c(SCC(=O)NCc2ccc(F)cc2)nc2ccccc21 > 30 µM, CCOC(=O)c1nnn(-c2nonc2N)c1CSc1ccc(C)cc1 > 30 µM, O=C1N/C(=N/Nc2ccccc2)S/C1=C\c1ccccc1 > 30 µM, CC(=O)NC(=S)Nc1ccccc1N1CCCCC1 > 30 µM, CC(=O)COc1cc(C)cc2oc(=O)cc(-c3ccccc3)c12 > 30 µM, CCc1nnc(NC(=O)c2cccc(OC)c2)s1 > 30 µM, O=C(COC(=O)c1cc(=O)c2ccccc2o1)NC1CCCC1 > 30 µM, Cc1cccc(Nc2ccccc2C(=O)O)c1C > 30 µM, CNC(=O)NC(=O)CSc1nc(-c2cccs2)c(C#N)c(=O)[nH]1 > 30 µM, CC(C)c1ccc(C(=O)NCCCN2CCN(CCCNC(=O)c3ccc(C(C)C)cc3)CC2)cc1 > 30 µM, CCOC(=O)C1=C(C)Nc2ncnn2C1c1ccc(N(C)C)cc1 (stereo not drawn) > 30 µM, CN(C)S(=O)(=O)c1cc(NC(=O)CN2CCN(c3ccc(O)cc3)CC2)ccc1Cl > 30 µM, CCc1nn(CC(=O)NCCN2CCN(C)CC2)c(=O)c2cc3c(OC)cccc3n12 > 30 µM, C=CCNC(=O)c1ccc(OC)cc1OC > 30 µM, O=C(O)COc1ccc(C(=O)c2ccccc2)cc1 > 30 µM, Cc1ccccc1NC(=O)Nc1ccccn1 > 30 µM, Cc1nn(Cc2ccc(Cl)c(Cl)c2)c(C)c1NC(=O)c1noc2c1CCCCC2 > 30 µM, O=C1NC(=NCc2ccccc2)S/C1=C\c1ccccc1 > 30 µM, CCOC(=O)COC(=O)c1ccc(O)cc1 > 30 µM, COc1ccc(/C(C)=N/NC(=O)CNC(=O)Cc2ccccc2)c(OC)c1 > 30 µM, Cc1cccc(NC(=O)CSc2nc(-c3ccccc3)c(C#N)c(=O)[nH]2)c1C > 30 µM, Cn1c(SCc2ccccc2C#N)nnc1-c1ccncc1 > 30 µM, Cc1c(C=Nc2ccc(S(=O)(=O)CCO)cc2)c(O)[nH]c(=O)c1C#N > 30 µM, CCCn1nc(NC(=O)CC(C)C)c2cc3ccccc3nc21 > 30 µM, COC(=O)C1=C(C)N(CCc2cc(OC)c(OC)c(OC)c2)C(=O)N[C@H]1c1ccccc1 > 30 µM, CCOC(=O)c1nnn(-c2nonc2N)c1CN1CCc2ccccc2C1 > 30 µM, Cc1ccnc(NC(=O)CCC(=O)N(CC(=O)NCc2ccccc2)Cc2cccs2)c1 > 30 µM, COc1ccc(C)cc1S(=O)(=O)Nc1cc2c3c(c1)CCN3C(=O)CC2 > 30 µM, COc1ccc(C2C3=C(CC(C)(C)CC3=O)Nc3n[nH]c(C)c32)cc1 (stereo not drawn) > 30 µM, NC(=O)CN(c1ccc([N+](=O)[O-])cc1)S(=O)(=O)c1ccccc1 > 30 µM, CCOC(=O)COn1c(=O)c(-c2cccs2)[n+]([O-])c2ccccc21 > 30 µM, Nc1nc(NCc2ccccc2)nc(NCCO)c1[N+](=O)[O-] > 30 µM, Cc1ccc2c(c1)Oc1ccc([N+](=O)[O-])cc1C(=O)N2 > 30 µM, O=C(CN1CCN(S(=O)(=O)c2ccccc2)CC1)Nc1ccc([N+](=O)[O-])cc1 > 30 µM, O=[N+]([O-])c1cc([N+](=O)[O-])c(N2CCCCCC2)cc1NCCO > 30 µM, CN(CC(=O)OCC(=O)Nc1ccccc1)S(=O)(=O)c1ccc(Cl)cc1 > 30 µM, NC(=O)COC(=O)c1ccc(-c2ccc(O)cc2)cc1 > 30 µM, COc1ccc(/C=C2/Sc3ccc(C(=O)NCCCN4CCOCC4)cc3NC2=O)cc1OC > 30 µM, Cc1cccc(Nc2nc(N)c([N+](=O)[O-])c(NCCO)n2)c1 > 30 µM, Cc1nn(CC(=O)NCCCN2CCCCC2)c(=O)c2cccn12 > 30 µM, COC(CNC(=O)CCc1c(C)nc2c(c(C)nn2-c2ccc(C)cc2)c1C)OC > 30 µM, O=c1cc(-c2ccccc2Cl)oc2c([N+](=O)[O-])c(O)cc(O)c12 > 30 µM
